Percent effect of library compounds

Amino acid sequences for entries named in this document (tags omitted). Residues count along the entry.
UniProt P9WNZ1, whole entry: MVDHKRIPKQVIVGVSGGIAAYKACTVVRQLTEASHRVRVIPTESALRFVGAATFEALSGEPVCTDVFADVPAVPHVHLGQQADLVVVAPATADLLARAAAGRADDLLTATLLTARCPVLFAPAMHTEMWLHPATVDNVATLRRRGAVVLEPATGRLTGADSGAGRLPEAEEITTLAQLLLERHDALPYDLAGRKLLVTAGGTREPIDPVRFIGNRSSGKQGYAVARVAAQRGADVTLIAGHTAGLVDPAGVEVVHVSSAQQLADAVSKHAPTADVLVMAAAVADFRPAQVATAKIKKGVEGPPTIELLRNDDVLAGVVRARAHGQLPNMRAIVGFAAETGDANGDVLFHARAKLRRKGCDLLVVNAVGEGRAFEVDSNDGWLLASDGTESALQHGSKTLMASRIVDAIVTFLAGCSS
UniProt P9WFT3, whole entry: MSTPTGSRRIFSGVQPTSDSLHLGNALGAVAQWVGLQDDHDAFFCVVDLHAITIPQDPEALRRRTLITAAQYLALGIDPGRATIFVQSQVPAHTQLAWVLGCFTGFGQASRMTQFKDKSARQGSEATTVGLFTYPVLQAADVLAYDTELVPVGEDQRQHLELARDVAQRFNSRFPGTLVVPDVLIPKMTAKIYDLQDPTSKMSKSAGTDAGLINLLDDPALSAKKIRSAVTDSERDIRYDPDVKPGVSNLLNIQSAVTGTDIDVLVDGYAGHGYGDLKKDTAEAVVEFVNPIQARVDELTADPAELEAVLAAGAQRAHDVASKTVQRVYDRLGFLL
UniProt P9WPC5, whole entry: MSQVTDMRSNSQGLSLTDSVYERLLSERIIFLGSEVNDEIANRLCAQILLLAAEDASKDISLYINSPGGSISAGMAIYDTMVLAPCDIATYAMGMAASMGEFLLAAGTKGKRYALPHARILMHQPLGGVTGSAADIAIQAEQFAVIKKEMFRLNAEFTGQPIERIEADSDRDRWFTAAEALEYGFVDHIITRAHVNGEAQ
UniProt P9WPC3, whole entry partner: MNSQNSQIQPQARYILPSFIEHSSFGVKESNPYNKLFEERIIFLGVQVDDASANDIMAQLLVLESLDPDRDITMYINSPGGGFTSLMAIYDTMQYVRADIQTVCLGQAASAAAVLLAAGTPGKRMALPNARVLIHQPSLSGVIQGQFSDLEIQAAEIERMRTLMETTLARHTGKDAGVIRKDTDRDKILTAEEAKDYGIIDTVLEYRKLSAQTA
UniProt A4I591, 1-473: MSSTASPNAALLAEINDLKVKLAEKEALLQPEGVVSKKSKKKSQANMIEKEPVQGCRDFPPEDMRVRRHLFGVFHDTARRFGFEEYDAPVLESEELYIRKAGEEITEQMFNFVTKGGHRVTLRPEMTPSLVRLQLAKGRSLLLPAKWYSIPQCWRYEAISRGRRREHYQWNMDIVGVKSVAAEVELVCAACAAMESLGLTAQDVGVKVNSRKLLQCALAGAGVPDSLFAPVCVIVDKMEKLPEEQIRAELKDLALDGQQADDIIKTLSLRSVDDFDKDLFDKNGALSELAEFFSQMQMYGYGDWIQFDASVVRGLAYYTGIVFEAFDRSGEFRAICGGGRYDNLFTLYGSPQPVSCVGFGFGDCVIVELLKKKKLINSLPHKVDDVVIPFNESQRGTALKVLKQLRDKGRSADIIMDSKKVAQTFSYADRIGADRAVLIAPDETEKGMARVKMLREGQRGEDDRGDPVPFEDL
UniProt Q4DA54, 1-478: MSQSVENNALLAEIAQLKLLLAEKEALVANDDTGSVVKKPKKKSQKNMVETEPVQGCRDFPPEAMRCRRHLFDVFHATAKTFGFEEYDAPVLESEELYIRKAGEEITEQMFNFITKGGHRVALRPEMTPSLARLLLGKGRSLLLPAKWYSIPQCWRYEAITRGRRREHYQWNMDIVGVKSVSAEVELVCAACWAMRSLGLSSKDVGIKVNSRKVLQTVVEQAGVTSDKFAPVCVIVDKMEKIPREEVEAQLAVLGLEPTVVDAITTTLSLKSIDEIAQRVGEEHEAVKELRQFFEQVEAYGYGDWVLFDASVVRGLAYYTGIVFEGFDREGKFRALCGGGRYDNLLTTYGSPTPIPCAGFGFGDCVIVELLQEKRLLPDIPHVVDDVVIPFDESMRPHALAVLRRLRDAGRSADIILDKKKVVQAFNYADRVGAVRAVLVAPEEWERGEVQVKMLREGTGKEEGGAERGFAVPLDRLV

Source: ChEMBL document CHEMBL3988442, “University of Dundee, Small-Polar-MMV Screening Library” (2021).

The filed quantity is “Percent Effect” (%). The controls that fix the scale are not given in the record; negative values are as filed. The compounds are a random part of those screened.

A: 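Coenzyme A biosynthesis protein CoaBC, Mycobacterium tuberculosis (UniProt P9WNZ1). Enzyme assay of CoaBC with a phosphate dye (Biomol Green) read at 650 nm. Compounds at 30 µM. Direction is inferred from only a few compounds that gave an IC50; most scored high, so higher reads as stronger inhibition. Most strong results did not repeat in a second test. About 67,000 compounds were tested under these conditions; 0.06% (about 40) showed 50% or more at least once.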
B: 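Tryptophan-tRNA ligase, Mycobacterium tuberculosis (UniProt P9WFT3). Enzyme assay of tryptophanyl-tRNA synthetase; the read-out is not stated. Tested at 10 µM. Higher most likely means stronger inhibition; the record gives no direction and few retests gave an IC50. Of about 65,000 compounds tested this way, about 64 (0.098%) reached 50% or more in at least one test.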
C: 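Protease assay of ClpP1P2, read by the AMC dye that it sets free. Target: ClpP1P2, Mycobacterium tuberculosis (UniProt P9WPC5 and UniProt P9WPC3). Tested at 50 µM. Higher reads as stronger inhibition, judged from the few compounds that gave an IC50. Most other retested compounds had strongly negative values. Size under these conditions: about 69,000 compounds, about 10 of them at 50% or above in at least one test.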
D: 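Enzyme assay of histidyl-tRNA synthetase; the read-out is not stated. Target: Histidine-tRNA ligase, Leishmania infantum (UniProt A4I591). Tested at 30 µM. The record gives no direction; compounds that gave an IC50 in retests scored well above the rest, so higher reads as stronger inhibition. The assay is labelled LdHisRS but filed under L. infantum. Size under these conditions: about 69,000 compounds, about 410 of them at 50% or above in at least one test.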
E: 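Enzyme assay of histidyl-tRNA synthetase; the read-out is not stated. Target: Histidine-tRNA ligase, Trypanosoma cruzi CL Brener (UniProt Q4DA54). Concentration: 30 µM. Higher reads as stronger inhibition (inferred: compounds with an IC50 in retests scored well above the rest). About 69,000 compounds were tested under these conditions; 0.045% (about 31) showed 50% or more at least once.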

CS(=O)(=O)NCc1cncc2c1CCN(CC1CCOC1)C2 (stereo not shown) read A: 11.59%; B: 3.127%; C: 2.722%; D: 21.62%; E: -2.488%. With COCC1CC2(CCN(C(=O)c3ccco3)CC2)CN1C(C)C (stereo not shown) the screen gave A: -1.713%; B: 4.58%; C: 1.963%; D: 15.07%; E: 9%. COCc1cccc(C(=O)N2CCCC2)c1 gave A: -0.609%; B: 0.7158%; C: 0.7493%; D: 20.43%; E: 8.929%. COc1ccnc(N2CCN(C(=O)Cc3ccc(C)s3)CC2)n1 gave A: 10%; B: 0.07819%; C: 9.929%; D: 18.67%; E: 1.887%. Result for CCc1ncc2c(n1)CN(Cc1nc(-c3cccnc3)no1)CC2 was A: 5.867%; B: -2.416%; C: -44.59%; D: 23.68%; E: 10.98%. For CCCN(CCn1c(=O)oc2ccccc21)CC1CC1 the result was A: -0.2049%; B: -3.61%; C: 6.93%; D: 15.71%; E: 4.255%. With CS(=O)(=O)N1CCC(Cc2cnc(Br)cn2)C1 (stereo not shown) the screen gave A: -10.92%; B: 22.43%; C: 13.16%; D: -4.255%; E: 0.7752%.

Result for CN(C)C(=O)[C@H]1C[C@@H]2CN(c3ncccn3)C[C@H]1O2 was A: 2.258%; B: -3.253%; C: 4.254%; D: 22.22%; E: 5.473%. Cc1nn(C)c(C)c1C1CCCN1Cc1cccc(C(N)=O)c1 (stereo not shown) read A: -1.799%; B: -1.652%; C: -20.18%; D: -16.85%; E: 6.767%. Result for O=C(NCC1CCOCC1)[C@@H]1C[C@@H]2[C@@H](CCN2Cc2ccoc2)O1 was A: 2.963%; B: -9.165%; C: -6.885%; D: 11.11%; E: 5.607%. Cc1nc(-c2nnc[nH]2)sc1C(=O)N1CCCC1CC(C)(C)C (stereo not shown) gave A: -0.6148%; B: -1.625%; C: 0.3433%; D: 4.286%; E: 4.255%. With O=C(c1cc(Cl)c2c(c1)OCO2)N1CCN(c2ccccn2)CC1 the screen gave A: 5.33%; B: 2.495%; C: 5.606%; D: 21.15%; E: 0.8264%. COc1ccccc1C(=O)NS(=O)(=O)c1cccc(C#N)c1 gave A: -0.3831%; B: -4.769%; C: -36.7%; D: 15.18%; E: 4.046%. Result for O=C(NCc1ccccn1)NCC(c1ccco1)N1CCCC1 (stereo not shown) was A: 8.584%; B: -1.143%; C: -0.3664%; D: 14.75%; E: 1.163%.

Cn1cnc(CN2Cc3nccn3CC2c2ccccc2)c1 (stereo not shown) read A: 2.959%; B: -7.784%; C: -18.74%; D: 8.451%; E: 4.545%. Cc1n[nH]cc1CNC(=O)Nc1cccc(OCC(F)(F)F)c1 read A: 2.244%; B: -2.205%; C: -5.894%; D: 17.81%; E: 0.9852%. Cc1nc(CNC(=O)NC(C)c2ccc3c(c2)OCCO3)cs1 (stereo not shown) read A: 0%; B: 0.4599%; C: 8.073%; D: 11.5%; E: -5.752%. With CC(=O)c1ccc(NC(=O)C(C)Cn2cc(Br)cn2)cc1 (stereo not shown) the screen gave A: 0.5612%; B: 0.08333%; C: 6.874%; D: 19.35%; E: 9.845%. c1cc2c(cc1-c1noc3c1CN(C1CCC1)CC3)OCO2 gave A: 2.703%; B: 3.846%; C: -10.71%; D: 19.35%; E: 7.407%. Result for O=C(CN1CCCC1Cn1cncn1)NCCOc1ccc(F)cc1 (stereo not shown) was A: 3.704%; B: -6.09%; C: -24.17%; D: 9.821%; E: 5.78%. For Cc1nnsc1C(=O)N(C)Cc1nc(-c2ccccn2)no1 the result was A: -1.525%; B: 1.991%; C: -12.16%; D: 12.28%; E: 3.279%.

COCCO[C@@H]1CCN(C(=O)c2occc2C)[C@H]1Cc1cnn(C)c1 gave A: -2.177%; B: 3.985%; C: -3.591%; D: 19.75%; E: 0.6135%. With Cc1nc(CN(C)Cc2csc(-c3cccs3)n2)co1 the screen gave A: 0.4866%; B: -33.33%; C: -4.921%; D: -6.667%; E: 0.6061%. COCc1ccccc1NCc1csc(NC(C)=O)n1 read A: -22.92%; B: 2.508%; C: -4.638%; D: 5.618%; E: 0.5181%. Result for Cc1ccc(CCNC(=O)CC2COCCN2S(=O)(=O)N(C)C)o1 (stereo not shown) was A: 2.512%; B: -2.929%; C: 10.88%; D: 1.639%; E: 2.146%. Result for Nc1nonc1C(=O)N1Cc2ccccc2OC2(CCOCC2)C1 was A: 2.19%; B: -2.493%; C: -9.877%; D: -28.42%; E: 1.493%. For O=C(COCCOc1ccccc1)Nc1ccnn1CC1CCOC1 (stereo not shown) the result was A: 1.399%; B: -0.1485%; C: -3.797%; D: 0%; E: 2.404%. O=C([C@H]1COC[C@H]2CN(CC3CCC3)C[C@H]21)N1CCOCC1 read B: -4.639%; C: -6.002%; D: 17.24%; E: 5.063%.

Some entries from above, unchanged:

Result for COCc1ccccc1NCc1csc(NC(C)=O)n1 was A: -22.92%; B: 2.508%; C: -4.638%; D: 5.618%; E: 0.5181%.
Result for COc1ccccc1C(=O)NS(=O)(=O)c1cccc(C#N)c1 was A: -0.3831%; B: -4.769%; C: -36.7%; D: 15.18%; E: 4.046%.